Experimental data reported in patent US20080206198A1, “Compounds and methods for pharmico-gene therapy of epithelial sodium channel associated disorders” (priority 2003, published 2008).
For some assays here: For at least one compound, name, drawing or mass did not settle the structure. Some results were stated once for a whole list of compounds, not compound by compound. Some ranges recur; such a range may be that of the whole group of compounds.

How the values were obtained:
[1] = tested on: polarized human airway epithelial cells; format: cell-based; settings: 0.1 μM camptothecin, 10 μM etoposide, 40 mM hydroxyurea, 50 μM genistein
Experimental: Primary culture of human bronchial epithelia and reagents utilized. Primary human airway epithelial cells were collected by enzymatic digestion of bronchial samples from lung transplants, as previously described (Kondo et al., 1991; Zabner et al., 1996). Isolated primary airway cells were seeded at a density of 5×10^5 cells/cm^2 onto collagen-coated Millicell-HA culture inserts (Millipore Corp., Bedford, Mass.). Primary cultures were grown at the air-liquid interface for more than 2 weeks, by which time differentiation into a mucociliary epithelium occurs. The culture medium, used to feed only the basolateral side of the cells, contained 49% DMEM, 49% Ham's F12 and 2% Ultraser G (BioSepra, Cedex, France). Dimethyl Sulphoxide (DMSO), camptothecin (Camp), etoposide (Etop), aphidicolin (Aphi), hydroxyurea (HU) and genistein (Geni) were purchased from Sigma (St. Louis, Mo.). Tripeptidyl aldehyde proteasome inhibitors N-Acetyl-L-Leucyl-L-Leucyl-Norleucine (LLnL) and benzyloxycarbonyl-L-leucyl-L-leucyl-L-leucinal (Z-LLL) were purchased from Calbiochem-Novabiochem Corporation (La Jolla, Calif.). Ubiquitin ligase (E3) inhibitors were obtained from Bachem Bioscience Inc. (King of Prussia, Pa.). Anti-AAV capsid monoclonal antibody (Anti-VP1, 2 and 3) was purchased from American Research Products (Belmont, Mass.) and anti-ubiquitin antibody was purchased from Santa Cruz Biotechnology Inc. (Santa Cruz, Calif.).
Transduction of polarized airway epithelial cells and primary human fibroblasts. rAAV infection of fully differentiated bronchial cells was performed as described in Duan et al. (1998). For infections from the apical surface of the airway cells, 5 μl rAAV was mixed with 50 μl of culture media and applied directly onto the apical compartment of Millicell inserts (MOI=10,000 particles/cell). During apical infection, the basolateral side of the Millicell was continuously bathed in culture media. Gene transfer to the basal side was performed by inverting Millicell inserts and applying viral vector to the bottom of the supporting filter membrane in a 50 μl volume for 2 hours. Subsequently, Millicell inserts were returned to the upright position, in the continued presence of the original viral inoculum plus an additional 450 μl of media. For both apical and basolateral infections, rAAV containing media was removed after 24 hours and replaced with either fresh culture media (for the basal side) or exposed to air (for the apical side). To test the effect of different agents on the efficiency of AAV transduction in polarized airway cells, 1 μl of each solution was mixed with AAV prior to infection of airway epithelia. Agents were usually presented during the 24 hours AAV infection period unless indicated otherwise. […]

[2] = tested on: HeLa cells; assay: AAV2 FLAG-Luc transduction of HeLa cells (luciferase screen); format: cell-based, human
Source text: A. To screen for agents that enhance rAAV transduction, any number of cells can be used. A range of concentrations of the agent to be tested can be determined based on, for instance desirable profiles of the agent, desirable toxicity profiles of the agent and/or concentration of the agents employed in vivo. The usefulness of the cell type chosen for the screen can be confirmed by testing compounds, e.g., proteasome inhibitors such as LLnL and ZLL which are known to increase rAAV transduction. For example, a AAV2 FLAG-Luc vector was employed to transduce HeLa, ferret fibroblasts, IB3 and Huh (liver) cells in the presence or absence of the proteasome inhibitor MG132. […]
HeLa cells were infected for 2 hours with an MOI of 100 rAAV in the presence of agents, e.g., ritonavir (Norvir) (1, 10 and 100 μM), cyclosporin A (2.5, 25 and 250 μg/ml), epoxomicin (1, 10 and 50 μM), alcacinomycin A (5, 50 or 500 μM), chymostatin (1, 10 and 100 μM), bestatin (1, 10 and 100 μM), doxorubicin (adriamycin) (0.1, 1 and 10 μM), camptothecin (camptosar) (1, 10 and 100 μM), eicosapentanoic acid (1, 10 and 100 μM), tannic acid (2, 20, 200 and 2000 μM), simvastatin, prodrug (2, 20 and 200 μM), cisplatin (0.2, 2 and 20 μg/mL), and chloroquine (4, 40 and 400 μM). […] Protein was determined by Bradford analysis and results were expressed as relative light units per mg protein (RLU/mg). […]

Compound | enhancement in rAAV transduction from the basolateral surface [1] | result in cell line screening [2]
CC[C@@]1(O)C(=O)OCc2c1cc1n(c2=O)Cc2cc3ccccc3nc2-1 [camptothecin] | 10 to 60 fold | 
COc1cc([C@@H]2c3cc4c(cc3[C@@H](O[C@@H]3O[C@@H]5CO[C@@H](C)O[C@H]5[C@H](O)[C@H]3O)[C@H]3COC(=O)[C@H]23)OCO4)cc(OC)c1O [etoposide] | 10 to 60 fold | 
O=c1c(-c2ccc(O)cc2)coc2cc(O)cc(O)c12 [genistein] | 10 to 60 fold | 
NC(=O)NO [hydroxyurea] | 10 to 60 fold | 
CCC(C)(C)C(=O)O[C@H]1C[C@@H](C)C=C2C=C[C@H](C)[C@H](CC[C@@H]3C[C@@H](O)CC(=O)O3)[C@H]21 [simvastatin] |  | negative results
